Test results reported in patent US7662644B2 (priority 2000, dated 2010).

Assay: general procedure: Boc solid-phase peptide synthesis; TAMPAL thioester-linker resin; -OCH2-Pam or MBHA resins; HBTU (in situ neutralization)
Details: for step yield: coupling step

| Substance | step yield | further results |
| --- | --- | --- |
| LY-(SAOD)-AGCRANK-NH2 | ˜85% | – |
| SAOD-KKKEKERPEISLPSDFEHTIH-VGFDACTGEFTGMPEQWARLLQT | 70% | – |
| TMR-LY-(SAOD)-AGCRANK-NH2 | – | conjugation yield (conjugation step, HPLC integration (labeling efficiency)): greater that 95% |
| TMR-LY-(SAOD)-AGCEYRIDRVRLFVDKLDNIAQVPRVGAAHHHHHH | – | conjugation yield (conjugation step): approximately 50%; difficulty met (conjugation step): it was difficult to achieve high yields |
| LY-(SAOD)-AGCEYRIDRVRLFVDKLDNIAQVPRVGAAHHHHHH | 58% | – |
